Laboratory results taken from PubChem BioAssay AID540276 (National Center for Advancing Translational Sciences (NCATS), 2011).
“And” between values parts separate entries of the source, which are not always exact repeats. Equal entries are not always repeated. The campaign covered roughly 300,000 compounds. About 5,400 (1.8%) were called active. The shares of active, inactive and inconclusive entries below differ from those in the screen. Calls come from the whole dose curve; tested in HEK293 cells. Potencies of inconclusive entries are doubtful fits and often do not repeat.

Experiment: qHTS for inhibitors of binding or entry into cells for Marburg Virus
Details: Marburg virus pseudotyped entry inhibition, cell reporter; activity change, negative = inhibition: at 37.8 µM (top of the series) unless noted
% is set by controls: 0 for no effect and ±100 for the full control effect; potency is the fitted concentration of half-maximal effect.

SMILES | Potency | activity change, negative = inhibition
c1c2c(cc3sc(N4CCOCC4)nc13)OCCO2 | inconclusive: 5.8 µM [inhibitor, full curve, poor fit] | 
CC(C)C(CCNCc1ccccn1)c1ccc(Cl)cc1 (stereo not drawn) | inconclusive: 35.5 µM [inhibitor, single point] | 
COc1cccc(C(=O)NCCCN2CCN(CCCNC(=O)c3cccc(OC)c3)CC2)c1 | inconclusive: 1.16 µM [inhibitor, full curve, poor fit] | 
Cc1nnc(SCC(=O)NCc2cccs2)n1-c1ccccc1 |  | inactive: 5.84% [at 46.1 µM]
O=C(c1ccc(N2CCOCC2)c([N+](=O)[O-])c1)N1CCN(c2ccccc2F)CC1 |  | inactive: 14.8%
Cn1c(SCc2ccccc2[N+](=O)[O-])nnc1-c1cccnc1 | inconclusive: 17.8 µM [activator, single point] | 
Cc1ccc(NS(=O)(=O)c2ccc3c(c2)CC(=O)N3)cc1F |  | inactive: 3.66%
CCOc1ccc(N2CC(C(=O)Nc3ccc(S(=O)(=O)Nc4ncccn4)cc3)CC2=O)cc1 (stereo not drawn) | inconclusive: 35.5 µM [activator, single point] | 
COc1cccc(CN2CC(C(=O)NC3CCC(O)CC3)CCC2=O)c1 (stereo not drawn) |  | inactive: 17%
CSCCC(NC(=O)c1ccc(Cl)cc1)C(=O)OCC(=O)Nc1cc(Cl)ccc1C (stereo not drawn) |  | inactive: 20.6%
CC(C)CC(=O)N1CC(=O)Nc2ccc(F)cc2C1c1ccccc1 (stereo not drawn) | inconclusive: 1.41 µM [activator, partial curve, poor fit] | 
CCC(Sc1nc2c(sc3ccccc32)c(=O)n1CCCC(=O)NC1CCCC1)C(=O)Nc1cccc(OC)c1 (stereo not drawn) |  | inactive: -1.79% [at 46.1 µM]
O=C1C2CC=C(Cl)CC2C(=O)N1CCCCCCN1C(=O)C2CC=C(Cl)CC2C1=O (stereo not drawn) |  | inactive: -15.9%
COCCN(C(=O)CSCc1ccccc1)c1c(N)n(Cc2ccccc2)c(=O)[nH]c1=O | inconclusive: 1.26 µM [inhibitor, single point] | 
Cc1sc2c(c1C)c(=O)n(-c1ccccc1)c(=O)n2CC(=O)c1ccc(Cl)cc1 | inconclusive: 0.562 µM [inhibitor, full curve, poor fit] | 
COc1cccc(CNC(=O)CCc2nnc3n(CC(C)C)c(=O)c4ccccc4n23)c1 |  | inactive: 0.553% [at 46.1 µM]
Cc1nc(-c2cccc(NS(=O)(=O)c3cccc4ccccc34)c2)cs1 | inconclusive: 16.4 µM [inhibitor, single point] | 
Cc1c(Nc2nc(-c3ccc(Cl)cc3)cs2)c(=O)n(-c2ccccc2)n1C | inconclusive: 35.5 µM [inhibitor, single point] | 
COc1cccc2c(SCC(=O)N/N=C/c3ccc(O)c(O)c3)cc(C)nc12 | inconclusive: 20 µM [inhibitor, partial curve, poor fit] | 
COc1cccc(-c2ccc(NC(=O)C3CCCN(Cc4cc(C)[nH]n4)C3)cc2)c1 (stereo not drawn) | inconclusive: 35.5 µM [inhibitor, single point] | 
COc1ccc(C)cc1NC(=O)Cn1c(=O)oc2ccccc21 |  | inactive: -2.66% [at 46.1 µM]
O=C(CSc1nc(-c2ccccc2)[nH]c1-c1ccccc1)Nc1ccc2c(c1)OCO2 | inconclusive: 35.5 µM [inhibitor, single point] | 
Cc1c(C(=O)Oc2ccc(-c3cnc4ccccc4n3)cc2)cccc1[N+](=O)[O-] |  | inactive: 1.39% [at 46.1 µM]

In a second layout: entries from further up
SMILES,Potency,"activity change, negative = inhibition"
Cc1nnc(SCC(=O)NCc2cccs2)n1-c1ccccc1,,inactive: 5.84% [at 46.1 µM]
O=C(c1ccc(N2CCOCC2)c([N+](=O)[O-])c1)N1CCN(c2ccccc2F)CC1,,inactive: 14.8%
Cn1c(SCc2ccccc2[N+](=O)[O-])nnc1-c1cccnc1,"inconclusive: 17.8 µM [activator, single point]",
Cc1ccc(NS(=O)(=O)c2ccc3c(c2)CC(=O)N3)cc1F,,inactive: 3.66%

More results:

SMILES | Potency | activity change, negative = inhibition
CCc1ccc(NC(=O)Cn2nc(C(F)(F)F)c3c2CCC3)cc1 | inconclusive: 25.9 µM [inhibitor, partial curve, poor fit] | 
CC(C)[C@H](NC(=O)C1CCCC1)c1nc2ccccc2[nH]1 | inconclusive: 3.16 µM [activator, partial curve, poor fit] | 
Cc1ccc(/C=[N+](\[O-])c2ccc(N(C)C)cc2)c2nsnc12 | inconclusive: 20 µM [inhibitor, single point] | 
Cc1nc2ccc(NC(=O)CCS(=O)(=O)c3ccccc3)cc2s1 | inconclusive: 0.092 µM [activator, single point] | 
Cc1ccc(-c2nc3ccccc3o2)cc1NC(=O)c1cccc2c(Cl)cccc12 | inconclusive: 35.5 µM [inhibitor, single point] | 
Fc1ccc(Oc2nc(-c3ccccn3)nc3ccccc23)cc1 | inconclusive: 8.91 µM [inhibitor, partial curve] | 
O=C(COC(=O)c1cc(Br)ccc1O)NNC(=O)c1ccc(Cl)cc1 |  | inactive: 8.09%
Cc1nc2sccn2c(=O)c1S(=O)(=O)Nc1ccc(N2CCN(S(C)(=O)=O)CC2)cc1 | inconclusive: 5.01 µM [inhibitor, full curve, poor fit] and inconclusive: 2.51 µM [inhibitor, single point] | 
O=C1C2C(c3ccccc3)C=CC(c3ccccc3)C2C(=O)N1c1ccccn1 (stereo not drawn) |  | inactive: 20.8%
CCOC(=O)C1(CCOc2ccccc2)CCN(Cc2ccc(O)c(OCC)c2)CC1 | active: 11.2 µM | 
Cc1csc2nc(COc3ccc(NC(=O)COc4ccccc4F)cc3)cc(=O)n12 |  | inactive: 6.78% [at 46.1 µM]
CC(C)CC(=O)NC(=S)Nc1ccc(S(=O)(=O)Nc2nccs2)cc1 |  | inactive: 10.5%
CC(=O)OC[C@H]1O[C@H](CC=NO[C@H](C)c2cn([C@H](CO)Cc3ccccc3)nn2)C=C[C@@H]1OC(C)=O |  | inactive: 13% [at 14.2 µM]
O=C(/C=C/c1ccco1)NC(=S)Nc1ccccc1N1CCOCC1 |  | inactive: -27.3%
COc1ccccc1OCCSc1ncnc2nc[nH]c12 |  | inactive: -8.18%
O=C(Cn1c(=O)n(-c2ccc(Cl)cc2)c(=O)c2c3c(sc21)CCC3)c1ccc(F)cc1 | inconclusive: 6.31 µM [inhibitor, single point] | 
Cc1cc(=O)oc2cc(OCCCN3C(=O)c4ccccc4C3=O)ccc12 | inconclusive: 2.51 µM [activator, partial curve] | 
Fc1ccc(Nc2nc3nonc3nc2Nc2cccc(C(F)(F)F)c2)cc1 | active: 2.24 µM | 
Cc1ccc(/C(O)=C/C(=O)C(=O)NNC(=O)C(O)(c2ccccc2)c2ccccc2)cc1 |  | inactive: -14.6%
CC(C)(C)C1CCc2c(sc(NC(=O)Cn3nnc(-c4cccc(C(F)(F)F)c4)n3)c2C#N)C1 (stereo not drawn) | inconclusive: 2.82 µM [inhibitor, partial curve, poor fit] | 
O=c1c2oc3nc4c(cc3c2ncn1CCCc1ccccc1)CCCC4 | inconclusive: 3.16 µM [activator, full curve] | 
COc1ccc(CNc2ncnc3c2[nH]c2ccccc23)cc1 | inconclusive: 7.08 µM [inhibitor, partial curve, poor fit] | 
COc1ccc2cc(C(C)C(=O)N3CCC(C(N)=O)CC3)ccc2c1 (stereo not drawn) |  | inactive: -2.92% [at 46.1 µM]

SMILES | Potency | activity change, negative = inhibition
N#C/C(=C\c1cn[nH]c1-c1ccccc1)C(=O)NC1CCCCCC1 | inconclusive: 18.3 µM [inhibitor, partial curve, poor fit] | 
COc1ccc2nc3oc(C(=O)N4CCCCC4)cc3cc2c1 | inconclusive: 10 µM [inhibitor, partial curve, poor fit] | 
O=C(O)c1ccccc1NN=C1CCCCC1 |  | inactive: -4.06%
C#CCOCCOCCOCCNc1nc(N2CCN(C(=O)[C@H]([C@@H](C)O)n3cc(CCCCN)nn3)CC2)nc(N2CCN(C(=O)[C@H]([C@@H](C)CC)n3cc(CCCN=C(N)N)nn3)CC2)n1 |  | inactive: 10.4%
Oc1ccc(/C=N/Nc2ccnc3cc(Cl)ccc23)c(O)c1 |  | inactive: 1.94%
COc1ccc(C(=O)C2CCN(S(=O)(=O)c3ccc4c(c3)OCCO4)CC2)cc1 | inconclusive: 14.6 µM [inhibitor, single point] | 
Cc1ccccc1C(=O)NC(=S)NCc1ccccc1 |  | inactive: 11% [at 46.1 µM]
O=C(C1=C(O)C(=O)N(CCCN2CCOCC2)[C@H]1c1ccccn1)c1cc2ccccc2o1 |  | inactive: 3.2%
C/C(=N\Nc1ccc(Cl)cc1)c1c(O)cc(C)oc1=O | inconclusive: 6.31 µM [inhibitor, full curve, poor fit] | 
COc1ccc(-c2cc3ccccc3n2CC(O)CNCCO)cc1 (stereo not drawn) | inconclusive: 35.5 µM [inhibitor, single point] | 
CCC1CCCCN1CCCNC(=O)c1ccc2c(c1)N(Cc1ccccc1F)C(=O)c1ccccc1S2(=O)=O (stereo not drawn) | inconclusive: 22.4 µM [inhibitor, partial curve, poor fit] | 
CC(=NNC(=S)N1CCCCC1)c1cccc(C)n1 | inconclusive: 0.199 µM [inhibitor, full curve, poor fit] | 
N#CC1C(C#N)N2CCCN2C1c1ccc(Br)cc1 (stereo not drawn) | inconclusive: 3.16 µM [inhibitor, single point] | 
CNC(=S)N(CCc1c(C)[nH]c2ccc(Cl)cc12)Cc1cccnc1 | inconclusive: 12.6 µM [inhibitor, partial curve, poor fit] | 
O=C(Nc1ccon1)c1ccc(Cl)c(S(=O)(=O)N2CCCCC2)c1 |  | inactive: -10.8%
Cc1ccc(S(=O)(=O)N2CCN(c3ccccc3)CC2)cc1C | inconclusive: 0.1 µM [inhibitor, full curve, poor fit] | 
CC(c1ccccc1)n1c(-c2ccc(C(C)(C)C)cc2)n[nH]c1=S (stereo not drawn) | inconclusive: 17.8 µM [inhibitor, partial curve, poor fit] | 
CN(C)CC1CC/C(=C\c2ccc(O)cc2)C1=O (stereo not drawn) | inconclusive: 22.4 µM [inhibitor, partial curve, poor fit] | 
CN(C)CCCn1c(SCC(=O)N2c3ccccc3Sc3ccccc32)nc2ccccc2c1=O | inconclusive: 11.2 µM [inhibitor, partial curve, poor fit] | 
COCCCNC(NC(=O)c1ccc(Br)cc1)C(Cl)(Cl)Cl (stereo not drawn) |  | inactive: 5.76%
COc1cc(SC)ccc1C(=O)OCC(=O)NC1CCCC1 |  | inactive: -18.7% [at 46.1 µM]
O=C(NC(=S)N1CCN(c2c(Cl)cccc2[N+](=O)[O-])CC1)c1cccs1 | inconclusive: 3.16 µM [activator, partial curve, poor fit] | 
